In patent publication US6777536 one finds binding data, which are given here for 1 molecule.

For the assay, the target named is cell surface ligand expressed endogenously in the rat liver stromal cell line BRL-3A (rat). Briefly: panel of cell lines treated with AP fusion supernatant at 1,000 OD/hr/ml, colorimetric assay of bound AP activity.

No constants are given. Whether binding was seen depends on the method and setting. Binding can be weak; no strength is given. Where a sequence is shown, tags or fusion partners need not be part of it.

B1: mek4-AP soluble receptor fusion protein (mouse Mek4 receptor extracellular domain fused to secreted human placental alkaline phosphatase) (receptor, not shown: large carriers)
chain: ELSPQPSNEVNLLDSKTIQGELGWISYPSHGWEEISGVDEHYTPIRTYQVCNVMDHSQNNWLRTNWVPRNSAQKIYVELKFTLRDCNSIPLVLGTCKETFNLYYMESDDHGVKFREHQFTKIDTIAADESFTQMDLGDRILKLNTEIREVGPVNKKGFYLAFQDVGACVALVSVRVYFKKCPFTVKNLAMFPDTVPMDSQSLVEVRGSCVNNSKEEDPPRMYCSTEGEWLVPIGKCTCNAGYEERGFICQACRPGFYKASDGAAKCAKCPPHSSTQEDGSMNCRCENNYFRAEKDPPSMACARPPSAPRNVISNINETSVILDWSWPLDTGGRKDITFNIICKKCGWNVRQCEPCSPNVRFLPRQLGLTNTTVTVTDLLAHTNYTFEIDAVNGVSELSSPPRQYAAVSITTNQAAPSPVMTIKKDRTSRNSISLSWQEPEHPNGIILDYEVKYYQKQEQETSYTILRARGTNVTISSLKPDTTYVFQIRARTAAGYGTNSRKFEFETSPDSFSISGENSHGSSG
Turning to B1, the binding entry is listed as “binds”.
